Reference: the supplement of paper PMC10735217
Counter-ions that a name gives are not always drawn. The list shows a part of the results. This data set is noisy: repeats of one test often differ as much as different tests do.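 The human kidney-derived cells carry a stably integrated construct of eight TEAD-binding elements driving luciferase, read by luminescence in a drug-repurposing library screen. A compound counts as a hit when its signal is more than five robust Z scores above the plate mean.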

System: HEK293A TEAD-LUC reporter
Experiment: TEAD-luciferase reporter activity (YAP activation), robust Z score vs plate; higher = stronger YAP/TEAD activation
Conditions: 24 h

| Compound | TEAD-luciferase reporter activity (compound concentration: 200 nM) | TEAD-luciferase reporter activity (compound concentration: 2 uM) | TEAD-luciferase reporter activity (compound concentration: 10 uM) |
| --- | --- | --- | --- |
| COc1cc2ncnc(Nc3ccc(F)c(Cl)c3)c2cc1OCCCN1CCOCC1 [gefitinib] | inactive: -1.33 | inactive: -0.522 | inactive: 1.78 |
| CC#CC(=O)N1CC[C@@H](n2c(=O)n(-c3ccc(Oc4ccccc4)cc3)c3c(N)ncnc32)C1 | inactive: -1.12 | inactive: -1.79 | inactive: -0.532 |
| CC(=O)N(O)C(C)/C=C/c1cccc(Oc2cccc(F)c2)c1 (stereo not drawn) | inactive: 1.89 | inactive: -0.0216 | inactive: -1.08 |
| C#CCOc1ccc(/C=C/C(=O)Nc2ccccc2C(=O)O)cc1OC | inactive: -1.21 | inactive: -1.77 | inactive: -1.27 |
| CCNC(=O)CC[C@H](N)C(=O)O [L-Theanine] | inactive: 0.554 | – | inactive: 1 |
| CCCCC/C=C\C/C=C\CCCCCCC(O)C(=O)O (stereo not drawn) [Sodium 2-hydroxylinoleate] | inactive: -0.6 | inactive: 2.18 | inactive: 0.461 |
| O=C(c1ccccc1)N1CCC(N2CCCNC2=O)CC1 | inactive: -1.29 | – | inactive: 0.145 |
| CCCCCCCCCCCCCC[n+]1ccc(C)cc1 [Myristyl-gamma-picolinium Chloride] | inactive: 2.04 | inactive: -1.93 | inactive: -0.223 |
| COc1cc2c(c3c1c(=O)c1cc4ccccc4cc1n3C)[C@H](O)[C@H](O)C(C)(C)O2 | inactive: -0.982 | inactive: 1.4 | inactive: 2.86 |
| COCCNCCc1cccc(Nc2ncc3c(n2)-c2ccccc2[C@H](c2ccccc2F)C3)c1 | inactive: -0.661 | inactive: -0.498 | inactive: 1.69 |
| C[C@]12CCC(=O)C=C1CC[C@@H]1[C@@H]2[C@@H](O)C[C@@]2(C)[C@H]1CC[C@]2(O)C(=O)COC(=O)c1ccc(CO[N+](=O)[O-])cc1 | inactive: -1.45 | inactive: 0.192 | inactive: 0.895 |
| C/C(=C(\OCCOc1ccc(Cl)cc1)c1ccc(Cl)cc1Cl)n1ccnc1 | inactive: -0.257 | inactive: -1.67 | inactive: -1.43 |
| O=C(C1CC1)N1CCC(C(=O)N2CCC(N3Cc4ccccc4C3=O)CC2)CC1 | inactive: -0.603 | – | inactive: 1.34 |
| CON1CC/C(=C\c2cc(C(C)(C)C)c(O)c(C(C)(C)C)c2)C1=O | inactive: -0.513 | inactive: -1.71 | inactive: -0.604 |
| Nc1ccc(S(=O)(=O)c2cnc(N)s2)cc1 | inactive: -0.954 | inactive: -0.602 | inactive: 2.66 |
| COc1cccc(CN(C(=O)CC(C)(C)C)[C@H]2C[C@@H](C(=O)N3CCNCC3)N(Cc3ccc4c(c3)OCO4)C2)c1 | inactive: -0.497 | inactive: -0.175 | inactive: 1.42 |
| COC1=C(C(=O)O)N2C(=O)[C@@H](NC(=O)[C@H](N)C3=CCC=CC3)[C@H]2SC1 | inactive: -0.304 | inactive: -0.195 | inactive: -0.735 |
| Cc1nc(Nc2ncc(C(=O)Nc3c(C)cccc3Cl)s2)cc(N2CCN(CCO)CC2)n1 [dasatinib] | inactive: -4.55 | inactive: -2.11 | inactive: -2.58 |
| OCc1c[nH]c2ccccc12 [Indole-3-carbinol] | inactive: -1.18 | inactive: -1.71 | inactive: 2.58 |
| COc1ccc(CC2CNC(=O)N2)cc1OC1CCCC1 (stereo not drawn) | inactive: 1.3 | inactive: -0.46 | inactive: -0.0394 |

Fetched one by one from the entries so far (two):

| Compound | TEAD-luciferase reporter activity (compound concentration: 200 nM) | TEAD-luciferase reporter activity (compound concentration: 2 uM) | TEAD-luciferase reporter activity (compound concentration: 10 uM) |
| --- | --- | --- | --- |
| O=C(C1CC1)N1CCC(C(=O)N2CCC(N3Cc4ccccc4C3=O)CC2)CC1 | inactive: -0.603 | – | inactive: 1.34 |
| COc1ccc(CC2CNC(=O)N2)cc1OC1CCCC1 (stereo not drawn) | inactive: 1.3 | inactive: -0.46 | inactive: -0.0394 |

More records follow:

| Compound | TEAD-luciferase reporter activity (compound concentration: 200 nM) | TEAD-luciferase reporter activity (compound concentration: 2 uM) | TEAD-luciferase reporter activity (compound concentration: 10 uM) |
| --- | --- | --- | --- |
| COc1ccc(Nc2ccn(-c3ccccc3)n2)cc1 | – | inactive: 0.217 | – |
| COc1ccc(Nc2ccn(-c3ccccc3)n2)cc1 [N-(4-Methoxyphenyl)-1-phenyl-1H-pyrazol-3-amine] | active: 10.7 | – | active: 6.95 |
| Cc1ccccc1-c1nc(N2CCOCC2)ncc1N(C)C(=O)C(C)(C)c1cc(C(F)(F)F)cc(C(F)(F)F)c1 | inactive: 0.773 | inactive: -0.468 | inactive: -0.0463 |
| CN(C)CC/C=C1/c2ccccc2CC(O)c2ccccc21 (stereo not drawn) | inactive: -1.03 | inactive: -1.87 | inactive: -1.38 |
| COc1cccc(C(=O)N2CCC(N3CCCCCC3=O)CC2)c1 | inactive: -1.03 | – | inactive: -1.79 |
| CC(C(=O)OCCCCO[N+](=O)[O-])c1ccc(-c2ccccc2)c(F)c1 (stereo not drawn) | inactive: -0.898 | inactive: -1.5 | inactive: -0.621 |
| COC[C@H](C)Oc1cc(Oc2cnc(C(=O)N3CCC3)cn2)cc(C(=O)Nc2cnc(C)nc2)c1 | inactive: -1.09 | inactive: -0.689 | inactive: 0.884 |
| OCCN1CCN(CCCC2c3ccc(F)cc3Sc3ccc(C(F)(F)F)cc32)CC1 (stereo not drawn) | inactive: -0.428 | inactive: -1.82 | inactive: 1.28 |
| CC(O)C(N)C(=O)O (stereo not drawn) [threonine, Indevus] | inactive: -0.954 | – | inactive: 3.71 |
| CCN(C)C(c1ccccc1)c1ccccc1 | inactive: -0.654 | inactive: -1.7 | inactive: 0.182 |
| CCC[C@]1(CCc2ccccc2)CC(=O)C(C(CC)c2cccc(NS(=O)(=O)c3ccc(C(F)(F)F)cn3)c2)C(=O)O1 (stereo partly drawn) [tipranavir] | inactive: -0.514 | inactive: -0.868 | inactive: 0.888 |
| Cc1cc(=O)oc2cc(O[C@@H]3SC[C@@H](O)[C@H](O)[C@H]3O)ccc12 [Odiparcil] | inactive: 0.791 | inactive: -1.86 | inactive: 0.189 |
| Cc1ccc(NC(=O)c2cccc(-c3nn[nH]n3)c2)cc1 | inactive: -1.03 | inactive: -2.63 | inactive: -1.54 |
| CCN1C(=O)c2cc(NC(=O)c3ccc(C(F)(F)F)cc3)ccc2Oc2ccccc21 | inactive: 1.55 | inactive: 1.94 | inactive: 2.3 |
| CN(C)CCCOc1ccc(-c2ccc3ncc4c(c3c2)n(C2CCOCC2)c(=O)n4C)cn1 | inactive: 1.68 | inactive: -1.34 | inactive: -1.61 |
| Cn1c(=O)c2c(ncn2CC(O)CN2CCN(CCCSc3ccccc3)CC2)n(C)c1=O (stereo not drawn) | inactive: 0.912 | inactive: -1.67 | inactive: 2.16 |
| Cn1cc(C(=O)[C@@H]2CCc3nc[nH]c3C2)c2ccccc21 [ramosetron (ODT)] | inactive: -1.03 | inactive: -2.32 | inactive: -1.42 |
| Cc1c(-c2cccnc2)n(CCCCCCCC(=O)O)c2ccccc12 | inactive: -0.552 | inactive: 1.15 | inactive: -0.177 |
| CC(=O)Nc1c(I)cc(I)c(C(=O)O)c1I | inactive: -1.11 | inactive: -0.893 | inactive: -0.983 |
| CC(=O)N[C@H]1CSSC[C@@H](C(N)=O)NC(=O)[C@H](C(C)C)NC(=O)[C@H](C)NC(=O)[C@H](Cc2cnc[nH]2)NC1=O [Exherin (trifluoroacetate)] | inactive: 1.5 | inactive: -0.866 | inactive: 3.47 |

| Compound | TEAD-luciferase reporter activity (compound concentration: 200 nM) | TEAD-luciferase reporter activity (compound concentration: 2 uM) | TEAD-luciferase reporter activity (compound concentration: 10 uM) |
| --- | --- | --- | --- |
| Cl/C(=C\n1cncn1)c1ccc(Cl)cc1Cl [Loreclezole] | inactive: -0.376 | inactive: -1.56 | inactive: 0.7 |
| CC(=O)NCC(=O)N1Cc2ccccc2CC2(CCCCN2CC2CCCC2)C1 (stereo not drawn) | inactive: -1.14 | – | inactive: -0.349 |
| CC(C)NCC(O)c1cc(O)cc(O)c1 (stereo not drawn) [Metaproterenol] | inactive: 0.148 | – | inactive: -0.88 |
| CC(C)NCC(O)c1cc(O)cc(O)c1 (stereo not drawn) [Orciprenaline sulphate] | – | inactive: -1.39 | – |
| Cc1cc(OCP2(=O)OCC[C@@H](c3cccc(Cl)c3)O2)cc(C)c1Cc1ccc(O)c(C(C)C)c1 (stereo partly drawn) | inactive: -1.52 | inactive: -0.748 | inactive: -1.21 |
| CC(C)(C)c1ccc(O)c(C(=O)c2cccs2)c1 | inactive: 1.51 | inactive: 1.09 | inactive: -0.979 |
| CCCCC[C@H](O)/C=C/[C@@H]1[C@H]2C/C(=C/CCCC(=O)OC)C[C@H]2C[C@H]1O | inactive: -0.539 | inactive: -0.224 | inactive: -0.504 |
| CCN(CCO)CCCC(C)Nc1ccnc2cc(Cl)ccc12 (stereo not drawn) | inactive: -0.721 | – | inactive: 4.33 |
| CC(=O)C1c2cccc(O)c2C(=O)c2c(O)cccc21 | inactive: -0.739 | inactive: 1.96 | inactive: 0.367 |
| C[C@@H](NC(=O)[C@H](N)Cc1c[nH]c2ccccc12)C(=O)O | inactive: -2.61 | inactive: -1.34 | inactive: 1.01 |
| COCCNC(=O)c1cccc(C(=O)NCCOC)n1 | inactive: -1.04 | inactive: -1.99 | inactive: -1.43 |
| CS(=O)(=O)c1ccccc1-c1ccc(NC(=O)c2cc(C(F)(F)F)nn2-c2cccc(CN)c2)c(F)c1 | inactive: -0.772 | inactive: -0.359 | inactive: 0.101 |
| COc1cc(C)c(S(=O)(=O)N(C)CCOCC(=O)N(C)Cc2ccc(C3=NCCN3)cc2)c(C)c1 | inactive: -1.14 | inactive: 3.07 | inactive: 0.688 |
| Nc1c2c(nc3ccccc13)CCCC2O (stereo not drawn) [Velnacrine maleate] | – | inactive: -0.325 | – |
| Nc1c2c(nc3ccccc13)CCCC2O (stereo not drawn) [Hydroxytacrine maleate] | inactive: -3.01 | – | inactive: -0.911 |
| CCOC(=O)C1=C(CN2CCOCC2)NC(c2nccs2)=NC1c1ccc(F)cc1Br (stereo not drawn) [Morphothiadin] | inactive: -0.463 | inactive: -0.438 | inactive: 1.21 |
| O=C1Cc2c(ccc3c2OC(CNCc2ccccc2)CO3)N1 (stereo not drawn) [Aplindore fumarate] | inactive: -0.75 | inactive: -0.843 | inactive: 3.33 |
| Cc1c(Cl)cc2c(c1C)OC(C(F)(F)F)C(C(=O)O)=C2 (stereo not drawn) | inactive: 0.0841 | inactive: -0.138 | inactive: -2.21 |
